The target of assay [1] is human HLA-G (form not named; printed as "human anti-HLA-G" in paragraph 257) (human) (UniProt P17693). The assay can be described thus: blocking ELISA: biotinylated HLAG on streptavidin plate, anti-HLAG antibody added first, then recombinant CD8a (blocked ligand), detected with HRP anti-CD8a; antibody concentration not given. For orientation: ELISA stands for enzyme-linked immunosorbent assay.

Assay [2] has the same target. Put plainly: screening of antibodies from immunized rats; method not given.

Results are given in words; binding and its absence hold for the method and conditions named. Some results given as binding are weak or reduced against the parent protein; the word gives no strength.

B1: HLA-G-0031 (antibody, V domains shown)
VH: QVKLMQSGAALVKPGTSVKMSCNASGYTFTDYWVSWVKQSHGKRLEWVGEISPNSGASNFDENFKDKATLTVDKSTSTAYMELSRLTSEDSAIYYCTRSSHGSFRWFAYWGQGTLVTVSS
VL: AIVLNQSPSSIVASQGEKVTITCRASSSVSSNHLHWYQQKPGAFPKFVIYSTSQRASGIPSRFSGSGSGTSYSFTISRVEAEDVATYYCQQGSSNPYTFGAGTKLELK
With B1, the binding entry in assay [1] and in assay [2] was “binds” throughout.

The values above are taken from patent publication US20250051456A1.
